Reference: publication PMC12359834
These are yes or no findings as the source states them, for the method shown. Binding seen in cells or lysates may run through a third protein. Some binding calls cover weakened binding; strength is not graded here.

Chains of the proteins cited; added tags and fusions are not shown.
UniProt P14598: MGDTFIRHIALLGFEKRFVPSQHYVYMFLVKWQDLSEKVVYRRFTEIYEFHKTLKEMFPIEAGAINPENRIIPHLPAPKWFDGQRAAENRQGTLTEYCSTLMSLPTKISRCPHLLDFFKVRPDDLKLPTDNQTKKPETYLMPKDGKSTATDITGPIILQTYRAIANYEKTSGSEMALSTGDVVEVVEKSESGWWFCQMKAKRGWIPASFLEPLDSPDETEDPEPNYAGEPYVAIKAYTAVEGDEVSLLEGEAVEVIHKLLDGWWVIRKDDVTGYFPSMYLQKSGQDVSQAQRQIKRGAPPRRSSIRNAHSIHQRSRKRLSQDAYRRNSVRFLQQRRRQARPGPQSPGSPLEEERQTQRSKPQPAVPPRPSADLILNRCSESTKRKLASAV

Key:
[1] = biological target: p47phox (human (endogenous in HAEC)) (UniProt P14598); assay: co-IP; endogenous proteins in HAEC transfected with control siRNA or AIP1 siRNA, untreated or TNFalpha (10 ng/ml) for 15 min; co-immunoprecipitation followed by Western blot
[2] = biological target: p47phox (human (endogenous in HAEC)) (UniProt P14598); assay: co-IP; HAEC infected with lentivirus with empty vector, AIP1-F or a truncate, untreated or TNFalpha (10 ng/ml for 15 min); lysates immunoprecipitated with anti-p47phox, Western blot with anti-NOX2

Row | binding [1] | binding [2] | Binder
1 | binds |  | AIP1 (protein, UniProt Q5VWQ8 1-1189) MSAGGSARKSTGRSSYYYRLLRRPRLQRQRSRSRSRTRPARESPQERPGSRRSLPGSLSEKSPSMEPSAATPFRVTGFLSRRLKGSIKRTKSQPKLDRNHSFRHILPGFRSAAAAAADNERSHLMPRLKESRSHESLLSPSSAVEALDLSMEEEVVIKPVHSSILGQDYCFEVTTSSGSKCFSCRSAAERDKWMENLRRAVHPNKDNSRRVEHILKLWVIEAKDLPAKKKYLCELCLDDVLYARTTGKLKTDNVFWGEHFEFHNLPPLRTVTVHLYRETDKKKKKERNSYLGLVSLPAASVAGRQFVEKWYPVVTPNPKGGKGPGPMIRIKARYQTITILPMEMYKEFAEHITNHYLGLCAALEPILSAKTKEEMASALVHILQSTGKVKDFLTDLMMSEVDRCGDNEHLIFRENTLATKAIEEYLKLVGQKYLQDALGEFIKALYESDENCEVDPSKCSAADLPEHQGNLKMCCELAFCKIINSYCVFPRELKEVFASWRQECSSRGRPDISERLISASLFLRFLCPAIMSPSLFNLLQEYPDDRTARTLTLIAKVTQNLANFAKFGSKEEYMSFMNQFLEHEWTNMQRFLLEISNPETLSNTAGFEGYIDLGRELSSLHSLLWEAVSQLEQSIVSKLGPLPRILRDVHTALSTPGSGQLPGTNDLASTPGSGSSSISAGLQKMVIENDLSGLIDFTRLPSPTPENKDLFFVTRSSGVQPSPARSSSYSEANEPDLQMANGGKSLSMVDLQDARTLDGEAGSPAGPDVLPTDGQAAAAQLVAGWPARATPVNLAGLATVRRAGQTPTTPGTSEGAPGRPQLLAPLSFQNPVYQMAAGLPLSPRGLGDSGSEGHSSLSSHSNSEELAAAAKLGSFSTAAEELARRPGELARRQMSLTEKGGQPTVPRQNSAGPQRRIDQPPPPPPPPPPAPRGRTPPNLLSTLQYPRPSSGTLASASPDWVGPSTRLRQQSSSSKGDSPELKPRAVHKQGPSPVSPNALDRTAAWLLTMNAQLLEDEGLGPDPPHRDRLRSKDELSQAEKDLAVLQDKLRISTKKLEEYETLFKCQEETTQKLVLEYQARLEEGEERLRRQQEDKDIQMKGIISRLMSVEEELKKDHAEMQAAVDSKQKIIDAQEKRIASLDAANARLMSALTQLKERYSMQARNGISPTNPTKLQITENGEFRNSSNC
2 |  | binds | NOX2 (protein, UniProt P04839 1-570) MGNWAVNEGLSIFVILVWLGLNVFLFVWYYRVYDIPPKFFYTRKLLGSALALARAPAACLNFNCMLILLPVCRNLLSFLRGSSACCSTRVRRQLDRNLTFHKMVAWMIALHSAIHTIAHLFNVEWCVNARVNNSDPYSVALSELGDRQNESYLNFARKRIKNPEGGLYLAVTLLAGITGVVITLCLILIITSSTKTIRRSYFEVFWYTHHLFVIFFIGLAIHGAERIVRGQTAESLAVHNITVCEQKISEWGKIKECPIPQFAGNPPMTWKWIVGPMFLYLCERLVRFWRSQQKVVITKVVTHPFKTIELQMKKKGFKMEVGQYIFVKCPKVSKLEWHPFTLTSAPEEDFFSIHIRIVGDWTEGLFNACGCDKQEFQDAWKLPKIAVDGPFGTASEDVFSYEVVMLVGAGIGVTPFASILKSVWYKYCNNATNLKLKKIYFYWLCRDTHAFEWFADLLQLLESQMQERNNAGFLSYNIYLTGWDESQANHFAVHHDEEKDVITGLKQKTLYGRPNWDNEFKTIASQHPNTRIGVFLCGPEALAETLSKQSISNSESGPRGVHFIFNKENF
3 |  | binds | AIP1-F (protein, UniProt Q5VWQ8 1-1189) MSAGGSARKSTGRSSYYYRLLRRPRLQRQRSRSRSRTRPARESPQERPGSRRSLPGSLSEKSPSMEPSAATPFRVTGFLSRRLKGSIKRTKSQPKLDRNHSFRHILPGFRSAAAAAADNERSHLMPRLKESRSHESLLSPSSAVEALDLSMEEEVVIKPVHSSILGQDYCFEVTTSSGSKCFSCRSAAERDKWMENLRRAVHPNKDNSRRVEHILKLWVIEAKDLPAKKKYLCELCLDDVLYARTTGKLKTDNVFWGEHFEFHNLPPLRTVTVHLYRETDKKKKKERNSYLGLVSLPAASVAGRQFVEKWYPVVTPNPKGGKGPGPMIRIKARYQTITILPMEMYKEFAEHITNHYLGLCAALEPILSAKTKEEMASALVHILQSTGKVKDFLTDLMMSEVDRCGDNEHLIFRENTLATKAIEEYLKLVGQKYLQDALGEFIKALYESDENCEVDPSKCSAADLPEHQGNLKMCCELAFCKIINSYCVFPRELKEVFASWRQECSSRGRPDISERLISASLFLRFLCPAIMSPSLFNLLQEYPDDRTARTLTLIAKVTQNLANFAKFGSKEEYMSFMNQFLEHEWTNMQRFLLEISNPETLSNTAGFEGYIDLGRELSSLHSLLWEAVSQLEQSIVSKLGPLPRILRDVHTALSTPGSGQLPGTNDLASTPGSGSSSISAGLQKMVIENDLSGLIDFTRLPSPTPENKDLFFVTRSSGVQPSPARSSSYSEANEPDLQMANGGKSLSMVDLQDARTLDGEAGSPAGPDVLPTDGQAAAAQLVAGWPARATPVNLAGLATVRRAGQTPTTPGTSEGAPGRPQLLAPLSFQNPVYQMAAGLPLSPRGLGDSGSEGHSSLSSHSNSEELAAAAKLGSFSTAAEELARRPGELARRQMSLTEKGGQPTVPRQNSAGPQRRIDQPPPPPPPPPPAPRGRTPPNLLSTLQYPRPSSGTLASASPDWVGPSTRLRQQSSSSKGDSPELKPRAVHKQGPSPVSPNALDRTAAWLLTMNAQLLEDEGLGPDPPHRDRLRSKDELSQAEKDLAVLQDKLRISTKKLEEYETLFKCQEETTQKLVLEYQARLEEGEERLRRQQEDKDIQMKGIISRLMSVEEELKKDHAEMQAAVDSKQKIIDAQEKRIASLDAANARLMSALTQLKERYSMQARNGISPTNPTKLQITENGEFRNSSNC
